# Laboratory results taken from PubChem BioAssay AID248 (DTP/NCI, 2004).
# The list does not hold the whole screen: it gathers some chemical classes. Other doses and runs of a compound may be missing. T/C: endpoint of the treated group in % of that of the vehicle group. Where survival is the endpoint, this PubChem deposit counts one and a half times the control or more as active, and values a quarter to a half above the control carry no call in these data; other NCI protocols may use other cut-offs. Some entries show no survivor count and are marked so; the dose need not have been tolerated. Schedule codes are those of the source, taken here to give the interval after Q, in days (D) or hours (H), and the number of doses after X. Some schedules carry Z or #; the key to these is not given. Some entries hold several experiments; their values stand side by side, smallest first.
# System: L1210 leukemia ip in BDF1 mice, survival T/C
# Test: NCI In Vivo Anticancer Drug Screen. Data for tumor model L1210 Leukemia (intraperitoneal) in B6D2F1 (BDF1) mice
# Details: T/C endpoint: mean survival time, higher T/C = longer survival
# [1] = dose: 25.0 mg/kg/injection, schedule: Q04DX003 (ip), vehicle: Klucel (hydroxypropylcellulose) (HPC)
compound,measurement,setting,value
Oc1ccc(Cl)cc1CN(CCCl)CCCl,T/C,"dose: 6.2 mg/kg/injection, schedule: Q04DX003 (ip), vehicle: Klucel (hydroxypropylcellulose) (HPC)",114 % of control [survivor count not shown]
same,T/C,"dose: 12.5 mg/kg/injection, schedule: Q04DX003 (ip), vehicle: Klucel (hydroxypropylcellulose) (HPC)",117 % of control [survivor count not shown]
same,T/C,"dose: 25.0 mg/kg/injection, schedule: Q01DX001 (ip), vehicle: Klucel (hydroxypropylcellulose) (HPC)",112 % of control [survivor count not shown]
same,T/C,[1],117 % of control [survivor count not shown]
same,T/C,"dose: 50.0 mg/kg/injection, schedule: Q01DX001 (ip), vehicle: Klucel (hydroxypropylcellulose) (HPC)",121 % of control [survivor count not shown]
same,T/C,"dose: 100.0 mg/kg/injection, schedule: Q01DX001 (ip), vehicle: Klucel (hydroxypropylcellulose) (HPC)",116 % of control [survivor count not shown]
Cc1ccc2nc(CN(CCCl)CCCl)[nH]c2c1,T/C,"dose: 8.0 mg/kg/injection, schedule: Q01DX Z (ip), vehicle: methylcellulose (MC)",98 % of control [survivor count not shown]
same,T/C,"dose: 11.0 mg/kg/injection, schedule: Q04DX003 (ip), vehicle: saline sonified",105 % of control [survivor count not shown]
same,T/C,"dose: 12.0 mg/kg/injection, schedule: Q01DX Z (ip), vehicle: methylcellulose (MC)",105 % of control [survivor count not shown]
same,T/C,"dose: 16.5 mg/kg/injection, schedule: Q04DX003 (ip), vehicle: saline sonified",130 % of control [survivor count not shown]
same,T/C,"dose: 18.0 mg/kg/injection, schedule: Q01DX Z (ip), vehicle: methylcellulose (MC)",116 % of control [survivor count not shown]
same,T/C,[1],126 % of control [survivor count not shown]
same,T/C,"dose: 25.0 mg/kg/injection, schedule: Q04DX003 (ip), vehicle: saline sonified",110 % of control [survivor count not shown]
same,T/C,"dose: 27.0 mg/kg/injection, schedule: Q01DX Z (ip), vehicle: methylcellulose (MC)",127 % of control [survivor count not shown]
OCC1OC(O)C(O)C(N(CCCl)CCCl)C1O (stereo not given),T/C,"dose: 0.07 mg/kg/injection, schedule: Q01DX Z (ip), vehicle: saline",100 % of control [survivor count not shown]
same,T/C,"dose: 0.11 mg/kg/injection, schedule: Q01DX Z (ip), vehicle: saline",108 % of control [survivor count not shown]
same,T/C,"dose: 0.17 mg/kg/injection, schedule: Q01DX Z (ip), vehicle: saline",111 [survivor count not shown] and 129 % of control [survivor count not shown]
same,T/C,"dose: 0.26 mg/kg/injection, schedule: Q01DX Z (ip), vehicle: saline",114 [survivor count not shown] and 132 % of control [survivor count not shown]
same,T/C,"dose: 0.4 mg/kg/injection, schedule: Q01DX Z (ip), vehicle: saline","100 [survivor count not shown], 138 [survivor count not shown], 146 % of control [survivor count not shown]"
same,T/C,"dose: 0.6 mg/kg/injection, schedule: Q01DX Z (ip), vehicle: saline","91 [survivor count not shown], 119 [survivor count not shown], 155 % of control [survivor count not shown]"
same,T/C,"dose: 0.9 mg/kg/injection, schedule: Q01DX Z (ip), vehicle: saline",103 [survivor count not shown] and 131 % of control [survivor count not shown]
same,T/C,"dose: 1.35 mg/kg/injection, schedule: Q01DX Z (ip), vehicle: saline",104 [survivor count not shown] and 110 % of control [survivor count not shown]
same,T/C,"dose: 1.5 mg/kg/injection, schedule: Q01DX Z (ip), vehicle: saline",106 % of control [survivor count not shown]
N#CSCCCl,T/C,"dose: 3.13 mg/kg/injection, schedule: Q01DX009 (ip), vehicle: Klucel (hydroxypropylcellulose) (HPC)",97 % of control [survivor count not shown]
same,T/C,"dose: 6.25 mg/kg/injection, schedule: Q01DX009 (ip), vehicle: Klucel (hydroxypropylcellulose) (HPC)",93 % of control [survivor count not shown]
